PubChem BioAssay AID1259308 | NCATS, 2017

Purpose: 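Genes whose loss raises luciferase production in HEK293 cells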 (primary screen)
System: human HEK293 embryonic kidney cells stably expressing firefly luciferase (HEK-CMV-Luc2-Hygro)
Reagent: single siRNA against human genes, 0.8 pmol siRNA per well
Timing: 72 h
Detection: 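Luciferase light (ONE-Glo) measured on one replicate plate set and viability (CellTiter-Glo) on the other, scaled to a negative control siRNA, with robust z-scores and luciferase per cell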
Reading the numbers: total luciferase, z-score and total luciferase, % of control: higher = more reporter protein produced; luciferase per cell, z-score: higher = more reporter output per viable cell; viable cells, % of control: higher = more viable cells
Rule for the call: 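An siRNA counts as active if its total luciferase robust z-score exceeds 3; genes with two or more such siRNAs out of three were retested with fresh siRNAs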
Calls: active = raised luciferase; inactive = no rise
Here is a random part of about 59,000 reagents tested. About 1,510 of all reagents (2.6%) were called active. 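Calls use total luciferase alone and ignore viability, so some active siRNAs may act by altering cell number.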 The numbers tell different reagents against one gene apart.

Target gene | siRNA no. | total luciferase, z-score | total luciferase, % of control | luciferase per cell, z-score | viable cells, % of control | Outcome
TEFM (GeneID 79736) | 1 | -0.186 | 78.2 | -0.546 | 101 | inactive
TEFM (GeneID 79736) | 2 | 0.00161 | 81.9 | -0.0503 | 92.8 | inactive
TEFM (GeneID 79736) | 3 | 0.235 | 86.6 | 0.127 | 93.5 | inactive
CD86 (GeneID 942) | 1 | -0.431 | 73.3 | -0.221 | 86.8 | inactive
CD86 (GeneID 942) | 2 | -1.11 | 59.9 | -1.63 | 103 | inactive
CD86 (GeneID 942) | 3 | 1.73 | 116 | 2.07 | 75.4 | inactive
TMEM196 (GeneID 256130) | 1 | 0.153 | 84.9 | -0.124 | 98 | inactive
TMEM196 (GeneID 256130) | 2 | 1.44 | 111 | 1.01 | 94.8 | inactive
TMEM196 (GeneID 256130) | 3 | -0.312 | 75.7 | -0.874 | 106 | inactive
IL10 (GeneID 3586) | 1 | -1.02 | 61.7 | -0.539 | 79.4 | inactive
IL10 (GeneID 3586) | 2 | -1.11 | 59.9 | -0.682 | 80.1 | inactive
IL10 (GeneID 3586) | 3 | 0.118 | 84.2 | -0.598 | 110 | inactive
OR52N5 (GeneID 390075) | 1 | -1.39 | 54.3 | -0.358 | 66.7 | inactive
OR52N5 (GeneID 390075) | 2 | 0.099 | 83.9 | -0.0187 | 94.2 | inactive
OR52N5 (GeneID 390075) | 3 | 1.18 | 105 | 0.356 | 107 | inactive
KLF1 (GeneID 10661) | 1 | -0.319 | 75.5 | 0.26 | 78.8 | inactive
KLF1 (GeneID 10661) | 2 | -0.873 | 64.5 | -0.7 | 86.7 | inactive
KLF1 (GeneID 10661) | 3 | 1.18 | 105 | 1.48 | 79.9 | inactive
ZC3H8 (GeneID 84524) | 1 | -0.405 | 73.8 | -0.388 | 91.4 | inactive
ZC3H8 (GeneID 84524) | 2 | 0.875 | 99.3 | 0.765 | 90.7 | inactive
ZC3H8 (GeneID 84524) | 3 | 0.543 | 92.7 | -0.019 | 104 | inactive
OARD1 (GeneID 221443) | 1 | 1.55 | 113 | 0.901 | 99.4 | inactive
OARD1 (GeneID 221443) | 2 | -1.14 | 59.2 | -1.01 | 86.3 | inactive
OARD1 (GeneID 221443) | 3 | 1.23 | 106 | 0.74 | 97.9 | inactive

A stretch taken from the entries so far, as a working copy:
Target gene | siRNA no. | total luciferase, z-score | total luciferase, % of control | luciferase per cell, z-score | viable cells, % of control | Outcome
OR52N5 (GeneID 390075) | 2 | 0.099 | 83.9 | -0.0187 | 94.2 | inactive
OR52N5 (GeneID 390075) | 3 | 1.18 | 105 | 0.356 | 107 | inactive
